# The supplement of paper PMC10849652
# Chains of the proteins cited; added tags and fusions are not shown. Lines headed by an entry give the natural chain unless they say otherwise; changes in a name come on top.
# UniProt P43897: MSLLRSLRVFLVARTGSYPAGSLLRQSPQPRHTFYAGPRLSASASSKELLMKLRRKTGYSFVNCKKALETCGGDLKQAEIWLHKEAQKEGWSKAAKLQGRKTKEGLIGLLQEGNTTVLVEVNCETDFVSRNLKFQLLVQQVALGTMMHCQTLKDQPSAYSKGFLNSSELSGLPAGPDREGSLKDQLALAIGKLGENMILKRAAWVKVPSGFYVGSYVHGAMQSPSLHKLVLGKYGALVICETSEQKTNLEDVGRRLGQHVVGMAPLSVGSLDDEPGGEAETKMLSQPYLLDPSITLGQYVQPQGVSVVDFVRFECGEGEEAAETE
# UniProt O95801: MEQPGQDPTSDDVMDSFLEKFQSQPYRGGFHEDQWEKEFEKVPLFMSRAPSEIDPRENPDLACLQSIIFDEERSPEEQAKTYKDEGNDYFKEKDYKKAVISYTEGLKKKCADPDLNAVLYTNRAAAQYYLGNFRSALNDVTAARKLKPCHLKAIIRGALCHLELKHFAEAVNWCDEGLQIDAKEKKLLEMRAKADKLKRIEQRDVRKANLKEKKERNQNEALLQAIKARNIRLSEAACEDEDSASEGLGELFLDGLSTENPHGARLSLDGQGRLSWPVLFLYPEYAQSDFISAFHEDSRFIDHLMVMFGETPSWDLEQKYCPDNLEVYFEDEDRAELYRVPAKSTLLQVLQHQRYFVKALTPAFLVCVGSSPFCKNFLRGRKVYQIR
# UniProt Q5T7W7: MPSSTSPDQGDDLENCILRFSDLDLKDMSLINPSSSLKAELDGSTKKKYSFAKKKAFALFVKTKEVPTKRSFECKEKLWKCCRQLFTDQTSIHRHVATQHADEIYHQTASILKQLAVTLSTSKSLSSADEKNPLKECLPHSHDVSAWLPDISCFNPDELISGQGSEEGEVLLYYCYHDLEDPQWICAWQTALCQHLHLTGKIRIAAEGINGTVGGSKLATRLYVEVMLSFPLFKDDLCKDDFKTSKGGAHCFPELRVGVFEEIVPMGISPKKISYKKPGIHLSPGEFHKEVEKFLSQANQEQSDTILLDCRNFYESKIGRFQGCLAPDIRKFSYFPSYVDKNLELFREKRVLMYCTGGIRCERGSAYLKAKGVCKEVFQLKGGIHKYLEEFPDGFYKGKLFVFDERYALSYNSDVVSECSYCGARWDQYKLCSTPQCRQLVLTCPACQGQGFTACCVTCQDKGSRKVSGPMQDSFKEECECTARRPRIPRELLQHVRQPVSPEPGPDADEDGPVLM
# UniProt Q99614: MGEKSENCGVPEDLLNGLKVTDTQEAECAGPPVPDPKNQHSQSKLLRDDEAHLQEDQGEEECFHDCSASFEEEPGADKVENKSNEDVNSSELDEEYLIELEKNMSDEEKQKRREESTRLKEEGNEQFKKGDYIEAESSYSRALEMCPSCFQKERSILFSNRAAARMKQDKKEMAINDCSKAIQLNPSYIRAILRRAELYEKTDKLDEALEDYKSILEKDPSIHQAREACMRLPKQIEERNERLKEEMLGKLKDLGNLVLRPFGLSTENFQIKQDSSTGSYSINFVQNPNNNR
# UniProt Q14669: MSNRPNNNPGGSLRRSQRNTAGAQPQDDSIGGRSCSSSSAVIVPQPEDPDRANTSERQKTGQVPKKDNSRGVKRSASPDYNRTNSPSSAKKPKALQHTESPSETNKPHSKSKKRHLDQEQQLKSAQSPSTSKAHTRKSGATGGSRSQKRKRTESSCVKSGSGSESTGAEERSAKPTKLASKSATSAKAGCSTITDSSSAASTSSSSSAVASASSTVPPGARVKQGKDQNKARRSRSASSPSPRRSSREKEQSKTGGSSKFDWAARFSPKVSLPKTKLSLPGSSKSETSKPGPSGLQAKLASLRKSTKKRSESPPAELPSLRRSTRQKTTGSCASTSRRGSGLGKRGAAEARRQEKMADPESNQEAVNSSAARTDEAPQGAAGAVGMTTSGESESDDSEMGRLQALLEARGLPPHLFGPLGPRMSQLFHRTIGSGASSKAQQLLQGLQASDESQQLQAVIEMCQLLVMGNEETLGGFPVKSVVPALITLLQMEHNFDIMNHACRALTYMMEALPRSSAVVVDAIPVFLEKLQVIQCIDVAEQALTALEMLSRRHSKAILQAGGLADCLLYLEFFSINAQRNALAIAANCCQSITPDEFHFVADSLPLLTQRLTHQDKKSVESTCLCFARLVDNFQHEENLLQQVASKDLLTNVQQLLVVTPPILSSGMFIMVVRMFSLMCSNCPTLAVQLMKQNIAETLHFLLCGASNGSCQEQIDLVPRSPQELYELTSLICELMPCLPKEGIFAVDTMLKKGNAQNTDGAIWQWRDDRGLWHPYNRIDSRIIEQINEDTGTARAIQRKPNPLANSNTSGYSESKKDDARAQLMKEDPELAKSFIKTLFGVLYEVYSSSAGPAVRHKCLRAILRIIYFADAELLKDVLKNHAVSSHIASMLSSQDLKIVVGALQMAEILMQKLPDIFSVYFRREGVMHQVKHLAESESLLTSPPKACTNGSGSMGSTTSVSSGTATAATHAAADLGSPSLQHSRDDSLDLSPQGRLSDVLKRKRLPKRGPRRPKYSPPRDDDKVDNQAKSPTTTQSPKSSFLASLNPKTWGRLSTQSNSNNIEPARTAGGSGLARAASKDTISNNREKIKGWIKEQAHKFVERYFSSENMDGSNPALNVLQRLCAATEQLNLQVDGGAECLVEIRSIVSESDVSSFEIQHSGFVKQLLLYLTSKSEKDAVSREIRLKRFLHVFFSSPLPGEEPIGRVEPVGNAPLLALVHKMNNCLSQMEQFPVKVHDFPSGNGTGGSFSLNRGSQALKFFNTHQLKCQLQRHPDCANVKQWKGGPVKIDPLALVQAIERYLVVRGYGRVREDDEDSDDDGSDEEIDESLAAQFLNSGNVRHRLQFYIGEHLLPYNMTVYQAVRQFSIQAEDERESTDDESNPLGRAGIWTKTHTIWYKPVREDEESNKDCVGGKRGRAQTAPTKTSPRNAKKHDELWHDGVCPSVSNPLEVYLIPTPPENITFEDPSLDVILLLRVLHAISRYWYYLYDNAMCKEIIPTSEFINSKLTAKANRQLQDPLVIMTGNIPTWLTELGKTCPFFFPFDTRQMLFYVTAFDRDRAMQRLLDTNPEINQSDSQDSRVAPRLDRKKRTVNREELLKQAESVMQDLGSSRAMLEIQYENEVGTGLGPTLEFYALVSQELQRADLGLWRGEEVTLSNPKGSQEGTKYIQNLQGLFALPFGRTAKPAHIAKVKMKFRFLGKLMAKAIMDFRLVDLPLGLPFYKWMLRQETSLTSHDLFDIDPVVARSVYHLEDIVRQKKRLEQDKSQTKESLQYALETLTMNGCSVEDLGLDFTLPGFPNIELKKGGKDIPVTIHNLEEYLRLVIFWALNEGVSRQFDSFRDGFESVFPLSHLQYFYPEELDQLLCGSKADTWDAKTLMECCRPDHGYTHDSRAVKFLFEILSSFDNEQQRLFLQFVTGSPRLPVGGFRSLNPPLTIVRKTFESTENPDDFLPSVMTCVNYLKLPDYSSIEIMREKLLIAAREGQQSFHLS
# UniProt Q92574: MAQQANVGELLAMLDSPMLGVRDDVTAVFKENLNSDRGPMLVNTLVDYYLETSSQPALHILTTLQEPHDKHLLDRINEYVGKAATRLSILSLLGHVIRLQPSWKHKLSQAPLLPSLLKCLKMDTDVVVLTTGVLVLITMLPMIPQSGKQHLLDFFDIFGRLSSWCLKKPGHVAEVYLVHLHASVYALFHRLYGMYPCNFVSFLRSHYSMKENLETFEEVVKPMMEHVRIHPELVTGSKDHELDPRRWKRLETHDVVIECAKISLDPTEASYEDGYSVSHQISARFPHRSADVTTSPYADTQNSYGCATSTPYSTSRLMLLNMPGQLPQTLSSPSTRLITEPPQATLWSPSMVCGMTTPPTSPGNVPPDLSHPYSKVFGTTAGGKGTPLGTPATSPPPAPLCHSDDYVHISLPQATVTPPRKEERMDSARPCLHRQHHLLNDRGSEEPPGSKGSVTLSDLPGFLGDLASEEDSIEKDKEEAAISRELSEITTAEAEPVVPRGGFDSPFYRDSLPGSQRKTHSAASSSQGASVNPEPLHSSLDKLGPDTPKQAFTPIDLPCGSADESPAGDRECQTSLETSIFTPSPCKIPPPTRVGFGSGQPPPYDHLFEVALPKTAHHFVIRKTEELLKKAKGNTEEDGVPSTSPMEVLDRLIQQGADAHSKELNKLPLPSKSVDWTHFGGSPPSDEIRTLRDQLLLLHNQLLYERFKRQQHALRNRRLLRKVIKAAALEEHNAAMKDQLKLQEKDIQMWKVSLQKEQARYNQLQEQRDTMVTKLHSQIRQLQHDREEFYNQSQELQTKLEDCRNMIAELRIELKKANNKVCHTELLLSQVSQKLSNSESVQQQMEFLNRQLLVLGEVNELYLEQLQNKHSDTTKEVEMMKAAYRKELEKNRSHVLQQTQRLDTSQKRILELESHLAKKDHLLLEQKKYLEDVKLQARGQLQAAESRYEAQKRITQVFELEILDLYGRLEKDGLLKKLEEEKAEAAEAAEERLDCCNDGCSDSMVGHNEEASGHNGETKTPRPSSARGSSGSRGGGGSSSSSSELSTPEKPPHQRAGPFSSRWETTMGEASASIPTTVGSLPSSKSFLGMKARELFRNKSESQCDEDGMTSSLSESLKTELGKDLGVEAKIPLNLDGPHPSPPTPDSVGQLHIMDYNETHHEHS
# UniProt Q6Q0C0: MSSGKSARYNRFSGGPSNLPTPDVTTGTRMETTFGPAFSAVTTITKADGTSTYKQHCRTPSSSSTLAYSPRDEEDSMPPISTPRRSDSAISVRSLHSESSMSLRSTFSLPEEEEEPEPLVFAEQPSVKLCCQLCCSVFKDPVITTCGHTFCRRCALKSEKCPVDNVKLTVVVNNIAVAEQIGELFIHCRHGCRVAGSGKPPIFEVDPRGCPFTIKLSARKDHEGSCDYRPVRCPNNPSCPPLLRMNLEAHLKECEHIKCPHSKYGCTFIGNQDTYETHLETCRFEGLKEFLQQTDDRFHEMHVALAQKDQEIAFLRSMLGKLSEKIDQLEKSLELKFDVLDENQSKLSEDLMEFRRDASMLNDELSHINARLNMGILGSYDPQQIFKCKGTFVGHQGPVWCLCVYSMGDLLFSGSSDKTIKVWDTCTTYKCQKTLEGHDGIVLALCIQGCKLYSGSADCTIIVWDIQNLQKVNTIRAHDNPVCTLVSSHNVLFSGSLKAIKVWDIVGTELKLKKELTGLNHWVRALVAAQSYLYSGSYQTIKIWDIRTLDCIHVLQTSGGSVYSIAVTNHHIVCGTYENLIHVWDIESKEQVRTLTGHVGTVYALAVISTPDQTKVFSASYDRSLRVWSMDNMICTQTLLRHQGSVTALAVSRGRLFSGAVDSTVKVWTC
# UniProt Q9H0U9: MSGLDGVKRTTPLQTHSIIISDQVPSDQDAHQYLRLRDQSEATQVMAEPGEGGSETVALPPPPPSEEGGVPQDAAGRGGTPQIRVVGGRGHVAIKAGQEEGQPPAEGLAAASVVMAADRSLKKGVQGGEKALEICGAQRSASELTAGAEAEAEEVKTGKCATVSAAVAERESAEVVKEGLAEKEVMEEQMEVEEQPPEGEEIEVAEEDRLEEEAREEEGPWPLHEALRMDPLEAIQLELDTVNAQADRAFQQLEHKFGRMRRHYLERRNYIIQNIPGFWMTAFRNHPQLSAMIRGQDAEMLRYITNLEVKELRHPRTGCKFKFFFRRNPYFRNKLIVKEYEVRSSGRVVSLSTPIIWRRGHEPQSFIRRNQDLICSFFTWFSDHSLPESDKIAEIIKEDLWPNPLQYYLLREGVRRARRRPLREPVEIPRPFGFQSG
# UniProt Q969E8: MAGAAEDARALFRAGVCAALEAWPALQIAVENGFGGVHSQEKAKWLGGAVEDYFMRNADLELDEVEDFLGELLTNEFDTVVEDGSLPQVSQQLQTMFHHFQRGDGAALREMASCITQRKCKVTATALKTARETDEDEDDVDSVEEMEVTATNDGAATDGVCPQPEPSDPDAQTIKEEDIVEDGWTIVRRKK
# UniProt Q13114: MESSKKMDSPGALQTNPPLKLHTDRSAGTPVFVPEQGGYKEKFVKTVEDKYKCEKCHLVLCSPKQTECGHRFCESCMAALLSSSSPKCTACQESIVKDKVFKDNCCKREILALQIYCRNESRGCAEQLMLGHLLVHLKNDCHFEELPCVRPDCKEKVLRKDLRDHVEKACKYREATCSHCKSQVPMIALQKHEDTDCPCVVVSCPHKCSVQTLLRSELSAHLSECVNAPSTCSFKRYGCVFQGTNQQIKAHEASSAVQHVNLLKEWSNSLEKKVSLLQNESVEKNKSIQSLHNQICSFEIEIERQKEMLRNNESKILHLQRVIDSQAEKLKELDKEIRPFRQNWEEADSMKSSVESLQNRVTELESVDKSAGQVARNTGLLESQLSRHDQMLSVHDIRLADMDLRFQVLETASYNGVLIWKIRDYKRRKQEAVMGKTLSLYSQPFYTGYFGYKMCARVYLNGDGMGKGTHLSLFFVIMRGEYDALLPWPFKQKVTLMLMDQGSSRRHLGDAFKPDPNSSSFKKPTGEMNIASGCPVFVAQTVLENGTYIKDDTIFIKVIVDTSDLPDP
# The list shows a part of the results.
# What was measured:
# Experiment in all cases: log2 fold change, soluble protein after heating vs DMSO (PISA); higher = thermal stabilisation; K562 lysate, 10 uM; active = over 0.2 and 3.5 SD of the protein, either way, in both replicates (recomputed)
# nilotinib = compound: Cc1cn(-c2cc(NC(=O)c3ccc(C)c(Nc4nccc(-c5cccnc5)n4)c3)cc(C(F)(F)F)c2)cn1 [nilotinib]
# Procedure, shortened: (§1)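 To prepare the extract, K562 pellets were dounce-homogenised in PBS pH 7.4 with 1 mM MgCl2, giving crude material at 1 mg/mL protein. This was treated with 10 μM compound for 30 min, then heated in aliquots for 3 min over 48°C-58°C before pooling and addition of NP-40 to 0.5% at 4°C. Centrifugation at 21,000xg for 90 min left soluble protein in the supernatant, which TMTpro 16plex LC-MS/MS quantified with equalised channel sums. Results are log-two fold changes in thermal stability compared with solvent controls, from duplicates.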
# [1] = compound: Cc1nc(Nc2n[nH]c3c2CN(C(=O)N[C@H](CN(C)C)c2ccccc2)C3(C)C)c2sccc2n1
# Procedure, shortened: as §1
# dasatinib = compound: Cc1nc(Nc2ncc(C(=O)Nc3c(C)cccc3Cl)s2)cc(N2CCN(CCO)CC2)n1 [dasatinib]
# Procedure, shortened: as §1
# [2] = compound: Cc1ncc(-c2ccnc(Nc3ccc(S(C)(=O)=O)cc3)n2)n1C(C)C
# Procedure, shortened: as §1
# [3] = compound: Cn1cc(-c2ccc3c(c2)CCN3C(=O)Cc2cccc(C(F)(F)F)c2)c2c(N)ncnc21
# Procedure, shortened: as §1
# quisinostat = compound: Cn1cc(CNCC2CCN(c3ncc(C(=O)NO)cn3)CC2)c2ccccc21 [quisinostat]
# Procedure, shortened: as §1
# tipifarnib = compound: Cn1cncc1[C@@](N)(c1ccc(Cl)cc1)c1ccc2c(c1)c(-c1cccc(Cl)c1)cc(=O)n2C [tipifarnib]
# Procedure, shortened: as §1
# [4] = compound: NC(=O)Nc1cc(-c2cccc(F)c2)sc1C(=O)N[C@H]1CCCNC1
# Procedure, shortened: as §1
# [5] = compound: NC(=O)c1cnc(N[C@@H]2CCCC[C@@H]2N)nc1Nc1cccc(-n2nccn2)c1
# Procedure, shortened: as §1
# [6] = compound: NC1(c2ccc(-c3nc4ccn5c(=O)[nH]nc5c4cc3-c3ccccc3)cc2)CCC1
# Procedure, shortened: as §1
# [7] = compound: NCC(=O)Nc1ccc(-n2nc(C(F)(F)F)cc2-c2ccc3c(ccc4ccccc43)c2)cc1
# Procedure, shortened: as §1
# vorinostat = compound: O=C(CCCCCCC(=O)Nc1ccccc1)NO [vorinostat]
# Procedure, shortened: as §1
# silmitasertib = compound: O=C(O)c1ccc2c(c1)nc(Nc1cccc(Cl)c1)c1ccncc12 [silmitasertib]
# Procedure, shortened: as §1
# [8] = compound: O=C1NC(=O)C(c2cnc3ccccn23)=C1c1cn2c3c(cc(F)cc13)CN(C(=O)N1CCCCC1)CC2
# Procedure, shortened: as §1
# entospletinib = compound: c1cn2cc(-c3ccc4cn[nH]c4c3)nc(Nc3ccc(N4CCOCC4)cc3)c2n1 [entospletinib]
# Procedure, shortened: as §1
Target,log2 fold change (nilotinib),log2 fold change [1],log2 fold change (dasatinib),log2 fold change [2],log2 fold change [3],log2 fold change (quisinostat),log2 fold change (tipifarnib),log2 fold change [4],log2 fold change [5],log2 fold change [6],log2 fold change [7],log2 fold change (vorinostat),log2 fold change (silmitasertib),log2 fold change [8],log2 fold change (entospletinib)
TSFM (UniProt P43897),inactive: -0.013,inactive: 0.021,inactive: -0.034,inactive: -0.028,inactive: 0.017,inactive: -0.016,inactive: 0.002,inactive: 0.002,inactive: 0.037,inactive: -0.026,inactive: 0.002,active: -0.261,inactive: 0.043,inactive: 0.035,inactive: -0.014
TTC4 (UniProt O95801),inactive: -0.04,inactive: -0.034,inactive: 0.025,inactive: -0.018,inactive: 0.012,inactive: -0.07,inactive: -0.01,inactive: 0.025,inactive: 0.023,inactive: -0.018,inactive: 0.013,active: -0.498,inactive: 0.022,inactive: -0.009,inactive: 0
TRIP13 (UniProt Q15645),inactive: -0.002,inactive: -0.031,inactive: 0.003,inactive: 0.049,inactive: 0.046,inactive: -0.065,inactive: 0.007,inactive: 0.026,inactive: 0.002,inactive: -0.031,inactive: 0.002,active: -0.472,inactive: 0.061,inactive: -0.002,inactive: 0.022
TSTD2 (UniProt Q5T7W7),inactive: -0.01,inactive: -0.03,inactive: -0.162,inactive: 0.01,inactive: -0.085,–,inactive: 0.127,–,inactive: 0.03,inactive: 0.009,inactive: -0.086,inactive: -0.263,inactive: 0.083,–,–
TTC1 (UniProt Q99614),inactive: 0.004,inactive: -0.011,inactive: 0.022,inactive: 0.004,inactive: 0.031,inactive: 0.08,inactive: 0.008,inactive: -0.046,inactive: 0.005,inactive: 0.004,inactive: -0.011,inactive: 0.086,inactive: -0.001,inactive: -0.032,inactive: -0.003
TRAPPC2L (UniProt Q9UL33),inactive: -0.024,inactive: 0.163,inactive: -0.028,inactive: -0.046,inactive: 0.029,inactive: -0.024,inactive: -0.073,inactive: 0.004,inactive: 0.001,inactive: 0.016,inactive: -0.054,inactive: -0.014,inactive: -0.024,inactive: 0.023,inactive: -0.005
TRIP12 isoform 2 (UniProt Q14669),inactive: -0.019,inactive: 0.011,inactive: 0.003,inactive: 0.001,inactive: 0.039,inactive: -0.065,inactive: -0.017,inactive: 0.057,inactive: 0.016,inactive: 0.003,inactive: -0.057,active: -0.266,inactive: 0.03,inactive: 0.005,inactive: -0.002
TSC1 (UniProt Q92574),inactive: 0.006,inactive: -0.076,inactive: -0.003,inactive: 0.06,inactive: 0.065,inactive: 0.02,inactive: -0.046,inactive: 0.009,inactive: 0.048,inactive: 0.072,inactive: 0.055,inactive: -0.044,inactive: -0.03,inactive: -0.001,inactive: -0.033
TSR3 (UniProt Q9UJK0),inactive: 0.071,inactive: -0.011,inactive: 0.002,inactive: 0.092,inactive: -0.087,inactive: -0.058,inactive: -0.021,inactive: 0.006,inactive: -0.05,inactive: 0.05,inactive: 0.047,inactive: -0.051,inactive: 0.014,inactive: 0.091,inactive: -0.021
TRAF7 (UniProt Q6Q0C0),inactive: 0.16,inactive: 0.027,inactive: -0.005,inactive: 0.154,inactive: 0.163,inactive: -0.035,inactive: -0.1,inactive: -0.033,–,–,inactive: 0.052,–,–,inactive: 0.059,inactive: 0.058
TSPYL1 (UniProt Q9H0U9),inactive: -0.053,inactive: -0.003,inactive: 0.04,inactive: -0.007,inactive: 0.077,inactive: 0,inactive: -0.048,inactive: 0.06,inactive: 0.154,inactive: -0.034,–,inactive: -0.079,inactive: 0.023,inactive: 0.034,–
TRIO (UniProt O75962),inactive: -0.028,inactive: -0.038,inactive: -0.019,inactive: 0.015,inactive: -0.02,inactive: -0.374,inactive: 0.097,inactive: -0.098,inactive: 0.008,inactive: -0.06,inactive: 0.024,inactive: 0.032,inactive: -0.035,inactive: 0.073,inactive: 0.031
TSPYL2 (UniProt Q9H2G4),inactive: 0.024,inactive: 0.015,inactive: -0.076,inactive: -0.009,inactive: -0.038,inactive: 0.142,inactive: -0.038,inactive: 0.047,–,inactive: 0,–,inactive: 0.014,inactive: 0.02,inactive: -0.125,inactive: -0.12
TRPM7 (UniProt Q96QT4),inactive: -0.146,inactive: -0.097,inactive: 0.022,inactive: -0.001,inactive: 0.056,inactive: -0.004,inactive: 0.108,inactive: 0.327,inactive: 0.206,–,inactive: 0.046,–,–,inactive: -0.05,inactive: -0.043
TRIM47 (UniProt Q96LD4),inactive: 0,inactive: 0.118,inactive: 0.209,inactive: -0.084,inactive: -0.032,–,inactive: 0.145,–,inactive: 0.062,inactive: 0.152,inactive: 0.084,inactive: -0.254,inactive: 0.211,–,inactive: 0.116
TSR2 (UniProt Q969E8),inactive: 0.003,inactive: 0.033,inactive: 0.001,inactive: -0.028,inactive: -0.04,inactive: 0.007,inactive: 0.027,inactive: -0.074,inactive: -0.006,inactive: 0.006,inactive: 0.013,inactive: 0.007,inactive: 0.009,inactive: -0.035,inactive: 0.003
TRAF3 (UniProt Q13114),inactive: 0.185,inactive: -0.132,inactive: -0.092,inactive: 0.024,inactive: -0.025,inactive: 0.282,inactive: -0.016,inactive: 0.017,inactive: 0.08,inactive: -0.317,inactive: 0.074,inactive: -0.308,inactive: -0.116,inactive: -0.005,inactive: 0.033

# Some of the entries above in another layout.
Target | log2 fold change (nilotinib) | log2 fold change [1] | log2 fold change (dasatinib) | log2 fold change [2] | log2 fold change [3] | log2 fold change (quisinostat) | log2 fold change (tipifarnib) | log2 fold change [4] | log2 fold change [5] | log2 fold change [6] | log2 fold change [7] | log2 fold change (vorinostat) | log2 fold change (silmitasertib) | log2 fold change [8] | log2 fold change (entospletinib)
TSFM (UniProt P43897) | inactive: -0.013 | inactive: 0.021 | inactive: -0.034 | inactive: -0.028 | inactive: 0.017 | inactive: -0.016 | inactive: 0.002 | inactive: 0.002 | inactive: 0.037 | inactive: -0.026 | inactive: 0.002 | active: -0.261 | inactive: 0.043 | inactive: 0.035 | inactive: -0.014
TTC4 (UniProt O95801) | inactive: -0.04 | inactive: -0.034 | inactive: 0.025 | inactive: -0.018 | inactive: 0.012 | inactive: -0.07 | inactive: -0.01 | inactive: 0.025 | inactive: 0.023 | inactive: -0.018 | inactive: 0.013 | active: -0.498 | inactive: 0.022 | inactive: -0.009 | inactive: 0
